Measurements from PubChem BioAssay AID328 (DTP/NCI, 2004).
The list shows only some results of the screen, not a fair sample: it gathers tests that were run many times, whatever their T/C, doses with no T/C, and many T/C values between a quarter and a half above the control. Further doses and runs are listed elsewhere. T/C is the treated group as % of the vehicle group. Some doses have a count of surviving animals in place of a T/C: the source holds a T/C of zero for them, seemingly a mark for toxic or unscored doses. Some survivor counts are full or nearly so, which does not show that the dose was tolerated: the source hardly ever lists a survival T/C far under the control, and the zero likely stands for such cases as well. Counts of survivors are from the toxicity check (mostly the fifth day) where no day follows; animals may have died later. Schedules are NCI's codes, read here as Q, the interval in days (D) or hours (H), X, the number of doses. Where survival is the endpoint, the PubChem record calls one and a half times the control and up active, and a quarter to a half above the control has no call in these data; cut-offs in other NCI protocols can differ.

System: BDF1 mice, P388 leukemia ip, median survival T/C
Assay: NCI In Vivo Anticancer Drug Screen. Data for tumor model P388 Leukemia (intraperitoneal) in B6D2F1 (BDF1) mice
Conditions: T/C endpoint: median survival time, higher T/C = longer survival
Summary of the method: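 Vehicle-dosed animals serve as the reference; survival of compound-dosed, tumour-implanted mice is divided by it.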

For `Cc1cc[n+](C)c2ccccc12`, the survivor count (dose: 37.5 mg/kg/injection, schedule: Q04DX003 (ip), vehicle: saline) was 6 of 6.
`COC(=O)[C@@]12OC[C@]34[C@H]([C@@H](O)[C@@H]1O)[C@@]1(C)CC(=O)C(O)=C(C)[C@@H]1C[C@H]3OC(=O)[C@H](OC(=O)c1ccccc1)[C@@H]24` was tested, and the survivor count (dose: 15.0 micrograms/kg/injection, schedule: Q01DX009 (ip), vehicle: saline + alcohol) was 6 of 6, the T/C (dose: 62.0 micrograms/kg/injection, schedule: Q01DX009 (ip), vehicle: saline + alcohol) was 140 % of control and the T/C (dose: 125.0 micrograms/kg/injection, schedule: Q01DX009 (ip), vehicle: saline + alcohol) was 135 % of control. The T/C (dose: 250.0 micrograms/kg/injection, schedule: Q01DX009 (ip), vehicle: saline + alcohol) was 125 % of control, the T/C (dose: 500.0 micrograms/kg/injection, schedule: Q01DX009 (ip), vehicle: saline + alcohol) was 135 % of control and the T/C (dose: 1000.0 micrograms/kg/injection, schedule: Q01DX009 (ip), vehicle: saline + alcohol) was 145 % of control. The T/C (dose: 4000.0 micrograms/kg/injection, schedule: Q01DX009 (ip), vehicle: saline + alcohol) was 140 % of control.
For `NC(=O)NC1C(c2ccccc2)=NOC1C(N)=O` (stereo not given), the survivor count (dose: 400.0 mg/kg/injection, schedule: Q01DX009 (ip), vehicle: Klucel (hydroxypropylcellulose) (HPC)) was 0 of 6.
With `O=C1OC2(CCCCC2)Cc2oc3ccccc3c(=O)c21` the survivor count (dose: 100.0 mg/kg/injection, schedule: Q01DX005 (ip), vehicle: Klucel (hydroxypropylcellulose) (HPC)) was 6 of 6.
